Results are given in words; binding and its absence hold for the method and conditions named. Binding seen in cells or lysates may run through a third protein. These calls come from enrichment with a bait or labelling near it, and not all partners need be listed. Values belong to the binder of their own block, whether it stands above or below them.
Target: estrogen receptor alpha (ER) (human (endogenous in MCF-7 and ZR-75)) (UniProt P03372)
Test: affinity purification with mass spectrometry; anti-ER antibody (Santa Cruz sc-8002) on Dynabeads Protein G, 1.5 mg lysate of MCF-7 or ZR-75 cells overnight at 4°C; cells starved, vehicle or 10 µM ERX-11 for 2 hr, then 10 nM E2 for 2 hr; the named proteins are ER binders whose co-precipitation was disrupted by ERX-11

Protein sequences, listed by entry. Tags and fused reporters are not part of them.
UniProt P03372: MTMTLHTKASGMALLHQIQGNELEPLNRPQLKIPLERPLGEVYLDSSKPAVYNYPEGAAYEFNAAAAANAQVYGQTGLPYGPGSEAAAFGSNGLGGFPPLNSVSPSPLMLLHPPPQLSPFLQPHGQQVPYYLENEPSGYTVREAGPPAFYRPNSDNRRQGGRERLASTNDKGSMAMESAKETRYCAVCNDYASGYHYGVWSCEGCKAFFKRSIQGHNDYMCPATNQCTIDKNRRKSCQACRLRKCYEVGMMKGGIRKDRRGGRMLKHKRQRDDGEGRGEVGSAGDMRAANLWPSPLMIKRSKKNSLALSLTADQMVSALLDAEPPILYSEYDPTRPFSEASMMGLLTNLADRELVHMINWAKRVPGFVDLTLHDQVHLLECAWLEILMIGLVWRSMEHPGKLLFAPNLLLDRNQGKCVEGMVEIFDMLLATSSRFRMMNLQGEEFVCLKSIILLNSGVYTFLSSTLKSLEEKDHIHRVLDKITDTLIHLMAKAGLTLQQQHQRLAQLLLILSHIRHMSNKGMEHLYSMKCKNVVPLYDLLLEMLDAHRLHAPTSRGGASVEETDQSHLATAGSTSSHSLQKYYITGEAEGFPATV

binding: binds
B1: COG3 (protein, UniProt Q96JB2 1-828)
chain: MAEAALLLLPEAAAERDAREKLALWDRRPDTTAPLTDRQTDSVLELKAAAENLPVPAELPIEDLCSLTSQSLPIELTSVVPESTEDILLKGFTSLGMEEERIETAQQFFSWFAKLQTQMDQDEGTKYRQMRDYLSGFQEQCDAILNDVNSALQHLESLQKQYLFVSNKTGTLHEACEQLLKEQSELVDLAENIQQKLSYFNELETINTKLNSPTLSVNSDGFIPMLAKLDDCITYISSHPNFKDYPIYLLKFKQCLSKALHLMKTYTVNTLQTLTSQLLKRDPSSVPNADNAFTLFYVKFRAAAPKVRTLIEQIELRSEKIPEYQQLLNDIHQCYLDQRELLLGPSIACTVAELTSQNNRDHCALVRSGCAFMVHVCQDEHQLYNEFFTKPTSKLDELLEKLCVSLYDVFRPLIIHVIHLETLSELCGILKNEVLEDHVQNNAEQLGAFAAGVKQMLEDVQERLVYRTHIYIQTDITGYKPAPGDLAYPDKLVMMEQIAQSLKDEQKKVPSEASFSDVHLEEGESNSLTKSGSTESLNPRPQTTISPADLHGMWYPTVRRTLVCLSKLYRCIDRAVFQGLSQEALSACIQSLLGASESISKNKTQIDGQLFLIKHLLILREQIAPFHTEFTIKEISLDLKKTRDAAFKILNPMTVPRFFRLNSNNALIEFLLEGTPEIREHYLDSKKDVDRHLKSACEQFIQQQTKLFVEQLEEFMTKVSALKTMASQGGPKYTLSQQPWAQPAKVNDLAATAYKTIKTKLPVTLRSMSLYLSNKDTEFILFKPVRNNIQQVFQKFHALLKEEFSPEDIQIIACPSMEQLSLLLLVSK

binding: binds
B2: COG1 (protein, UniProt Q8WTW3 1-980)
chain: MATAATSPALKRLDLRDPAALFETHGAEEIRGLERQVRAEIEHKKEELRQMVGERYRDLIEAADTIGQMRRCAVGLVDAVKATDQYCARLRQAGSAAPRPPRAQQPQQPSQEKFYSMAAQIKLLLEIPEKIWSSMEASQCLHATQLYLLCCHLHSLLQLDSSSSRYSPVLSRFPILIRQVAAASHFRSTILHESKMLLKCQGVSDQAVAEALCSIMLLEESSPRQALTDFLLARKATIQKLLNQPHHGAGIKAQICSLVELLATTLKQAHALFYTLPEGLLPDPALPCGLLFSTLETITGQHPAGKGTGVLQEEMKLCSWFKHLPASIVEFQPTLRTLAHPISQEYLKDTLQKWIHMCNEDIKNGITNLLMYVKSMKGLAGIRDAMWELLTNESTNHSWDVLCRRLLEKPLLFWEDMMQQLFLDRLQTLTKEGFDSISSSSKELLVSALQELESSTSNSPSNKHIHFEYNMSLFLWSESPNDLPSDAAWVSVANRGQFASSGLSMKAQAISPCVQNFCSALDSKLKVKLDDLLAYLPSDDSSLPKDVSPTQAKSSAFDRYADAGTVQEMLRTQSVACIKHIVDCIRAELQSIEEGVQGQQDALNSAKLHSVLFMARLCQSLGELCPHLKQCILGKSESSEKPAREFRALRKQGKVKTQEIIPTQAKWQEVKEVLLQQSVMGYQVWSSAVVKVLIHGFTQSLLLDDAGSVLATATSWDELEIQEEAESGSSVTSKIRLPAQPSWYVQSFLFSLCQEINRVGGHALPKVTLQEMLKSCMVQVVAAYEKLSEEKQIKKEGAFPVTQNRALQLLYDLRYLNIVLTAKGDEVKSGRSKPDSRIEKVTDHLEALIDPFDLDVFTPHLNSNLHRLVQRTSVLFGLVTGTENQLAPRSSTFNSQEPHNILPLASSQIRFGLLPLSMTSTRKAKSTRNIETKAQVVPPARSTAGDPTVPGSLFRQLVSEEDNTSAPSLFKLGWLSSMTK

From publication PMC5548489
